Laboratory results taken from patent US20200094070A1, “METHOD AND APPARATUS FOR PHOTOACTIVATING NUCLEAR RECEPTORS” (THERALASE BIOTECH INC., priority 2017, published 2020).
At least one compound was matched to its structure with a doubt left.

Columns and labels:
[1] = tested on: human bladder cancer (T24) cells; settings: dexamethasone, 24 hours
[2] = tested on: human bladder cancer (T24) cells; test: LLLT combined with 14C PDT, Presto Blue cell kill, T24 cells; assay type: cell-based; settings: 1 uM, 24 hours
[3] = tested on: RG2 cells; settings: dexamethasone, 24 hours
[4] = tested on: Rat glioma (RG2) cells; test: LLLT combined with 14C PDT, Presto Blue cell kill, RG2 cells; assay type: cell-based; settings: 1 uM, 24 hours
[5] = tested on: RG2 cells; test: Stem-like characteristics of cancer cells (qPCR of stem cell genes, proliferation rate) after LLLT; assay type: cell-based, rat; settings: 24 hours pre-treatment
Protocol: Cells were then treated with 905 nm at fluence doses of 5 or 20 J/cm^2. Cells were incubated for 6 hours, then the cells were washed once with PBS and harvested by TRIzol reagent for RNA extraction (Invitrogen) per the manufacturer's protocol. 2 ug of RNA were used to prepare cDNA using the high-capacity cDNA reverse transcription kit (Thermofisher) and the cDNA was diluted 1:10. 2 μl of cDNA was used per PCR reaction using the SYBR green master mix and qPCR was run on the LightCycler 480 (Roche). Gene expression was normalized to the housekeeping gene HPRT, and values were normalized to control cells that were kept in the dark and not treated with LLLT. Relative analysis of stem cell associated transcription factor genes CD133, OCT4, NANOG, SOX2 and LIN28a, or proliferation promoting genes NESTIN, MSI1, MELK and ALDH1a1. […] Phase contrast images (4×) were taken every 4 hours using the Incucyte ZOOM system to calculate percent confluency overtime. […] Proliferation rate was calculated as the inverse of T (time when cells reach confluency halfway between original seeding density (15%) and final 100% confluency). Data were normalized to the corresponding dark control group (0 J/cm^2) for each drug expressed as 1 (not shown). […]

[6] = tested on: human bladder cancer (T24) cells; test: LLLT combined with Cisplatin, Presto Blue cell kill, T24 cells; assay type: cell-based; settings: 1 uM, 24 hours
Protocol: (§1) After 6 or 24 hours, the cells were treated with Cisplatin (1 ug/ml for RG2 cells or 1.5 ug/ml for T24 cells), and the plates were returned to the incubator overnight. Cell viability was measured by Presto Blue cell viability assay quantifying fluorescence at using a plate reader at excitation emissions of 560/600 nm. Values were normalized to control cells that were kept in the dark and not treated with LLLT.
as §1, with “Values will be” for “Values were”, “that are” for “that were”
(§2) Cells were then treated with either: 1) the ruthenium-based PDC 14C followed by PDT using a green laser light source (FIGS. 24A-24D); 2) the antineoplastic drug Cisplatin (FIGS. 25A-25D). The plates were then returned to the incubator overnight. Cell viability was measured by Presto Blue cell viability assay quantifying fluorescence at using a plate reader at excitation emissions of 560/600 nm. Values were normalized to control cells that were […].

[7] = tested on: Rat glioma (RG2) cells; test: LLLT combined with Cisplatin, Presto Blue cell kill, RG2 cells; assay type: cell-based; settings: 1 uM, 24 hours
Protocol: as §1
as §1, with “Values will be” for “Values were”, “that are” for “that were”
as §2

[8] = tested on: Rat glioma (RG2) cells; test: LLLT combined with TMZ, Presto Blue cell kill, RG2 cells; assay type: cell-based; settings: 1.5 mM TMZ, 905 nm PW, 660 nm CW or combination, all conditions
[9] = higher LLLT fluence 10-20 J/cm^2

Compound | effect on Warburg effect (glycolysis rate, mitochondrial respiration) [1] | effect of dexamethasone where LLLT had a positive effect on 14C-PDT cell kill [2] | effect of dexamethasone where LLLT had a negative effect on 14C-PDT cell kill [2, 9] | effect on Warburg effect (glycolysis rate, mitochondrial respiration) [3] | effect of dexamethasone where LLLT had a positive effect on 14C-PDT cell kill [4] | effect of dexamethasone where LLLT had a negative effect on 14C-PDT cell kill [4, 9] | effect of Dexamethasone pre-treatment on negative biphasic effects of LLLT on stem-like characteristics [5] | effect of dexamethasone where LLLT had a positive effect on Cisplatin cell kill [6] | effect of dexamethasone where LLLT had a negative effect on Cisplatin cell kill [6, 9] | effect of dexamethasone where LLLT had a positive effect on Cisplatin cell kill [7] | effect of dexamethasone where LLLT had a negative effect on Cisplatin cell kill [7, 9] | TMZ-mediated cell kill with LLLT [8]
C[C@@H]1C[C@H]2[C@@H]3CCC4=CC(=O)C=C[C@]4(C)[C@@]3(F)[C@@H](O)C[C@]2(C)[C@@]1(O)C(=O)CO [Dexamethasone] | inhibits the Warburg effect | did not have a synergistic or an additive effect | reversed that effect to a positive significantly different effect | inhibits the Warburg effect | did not have a synergistic or an additive effect | reversed that effect to a positive significantly different effect | reversed | did not have a synergistic or an additive effect | reversed that effect to a positive significantly different effect | did not have a synergistic or an additive effect | reversed that effect to a positive significantly different effect | 
Cn1nnc2c(C(N)=O)ncn2c1=O [TMZ, Temozolomide] |  |  |  |  |  |  |  |  |  |  |  | increased
